Data on 7 substances can be found in paper PMC4889327.

Protein sequences, listed by entry. Tags and fused reporters are not part of them. Lines headed by an entry give the natural chain unless they say otherwise; changes in a name come on top.
UniProt P61088: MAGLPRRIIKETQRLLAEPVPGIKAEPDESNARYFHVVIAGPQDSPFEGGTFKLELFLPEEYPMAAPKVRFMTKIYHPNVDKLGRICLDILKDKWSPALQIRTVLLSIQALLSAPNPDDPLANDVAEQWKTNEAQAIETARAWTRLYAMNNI
UniProt Q9UHA4: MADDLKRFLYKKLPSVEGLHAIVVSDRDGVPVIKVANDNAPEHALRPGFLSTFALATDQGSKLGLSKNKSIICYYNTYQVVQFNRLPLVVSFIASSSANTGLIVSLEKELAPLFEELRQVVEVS
UniProt Q93050: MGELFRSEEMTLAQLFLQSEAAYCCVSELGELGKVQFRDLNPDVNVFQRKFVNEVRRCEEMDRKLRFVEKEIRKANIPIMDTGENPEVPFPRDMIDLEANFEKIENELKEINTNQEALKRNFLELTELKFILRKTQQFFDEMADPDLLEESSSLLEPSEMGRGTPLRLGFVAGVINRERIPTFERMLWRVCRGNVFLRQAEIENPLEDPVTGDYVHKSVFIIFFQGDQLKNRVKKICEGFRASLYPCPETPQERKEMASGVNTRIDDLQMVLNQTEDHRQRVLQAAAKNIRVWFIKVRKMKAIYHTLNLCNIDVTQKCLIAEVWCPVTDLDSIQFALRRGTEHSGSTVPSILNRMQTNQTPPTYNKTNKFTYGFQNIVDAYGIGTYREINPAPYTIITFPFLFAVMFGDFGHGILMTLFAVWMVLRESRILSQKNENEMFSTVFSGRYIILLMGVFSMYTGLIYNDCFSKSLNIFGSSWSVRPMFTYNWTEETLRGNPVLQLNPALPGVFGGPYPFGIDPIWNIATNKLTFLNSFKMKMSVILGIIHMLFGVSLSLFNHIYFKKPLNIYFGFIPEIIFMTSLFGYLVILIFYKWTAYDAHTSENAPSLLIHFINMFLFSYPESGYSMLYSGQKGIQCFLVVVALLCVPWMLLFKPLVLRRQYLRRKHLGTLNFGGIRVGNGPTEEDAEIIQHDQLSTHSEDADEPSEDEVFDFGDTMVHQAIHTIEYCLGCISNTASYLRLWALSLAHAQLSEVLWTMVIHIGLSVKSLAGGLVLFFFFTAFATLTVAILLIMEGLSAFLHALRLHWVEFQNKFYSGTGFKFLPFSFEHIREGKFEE
UniProt P27449: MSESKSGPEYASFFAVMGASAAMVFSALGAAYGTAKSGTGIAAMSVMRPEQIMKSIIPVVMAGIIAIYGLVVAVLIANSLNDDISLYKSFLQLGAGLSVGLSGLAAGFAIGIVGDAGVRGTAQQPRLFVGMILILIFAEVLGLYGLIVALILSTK
UniProt P61421: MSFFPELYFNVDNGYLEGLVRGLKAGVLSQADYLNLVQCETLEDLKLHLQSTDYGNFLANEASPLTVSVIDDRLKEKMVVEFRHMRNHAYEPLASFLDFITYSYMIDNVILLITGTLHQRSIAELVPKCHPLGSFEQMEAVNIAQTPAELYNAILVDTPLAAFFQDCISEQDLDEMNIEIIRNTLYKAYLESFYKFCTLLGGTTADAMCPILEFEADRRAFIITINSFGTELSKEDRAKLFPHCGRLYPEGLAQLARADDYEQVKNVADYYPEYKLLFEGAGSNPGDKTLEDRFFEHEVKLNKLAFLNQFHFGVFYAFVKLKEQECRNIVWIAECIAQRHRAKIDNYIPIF
UniProt Q9Y2Q5: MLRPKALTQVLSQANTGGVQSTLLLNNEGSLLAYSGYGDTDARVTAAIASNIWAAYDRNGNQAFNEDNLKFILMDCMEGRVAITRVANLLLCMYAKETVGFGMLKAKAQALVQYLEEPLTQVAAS

Results are given in words; binding and its absence hold for the method and conditions named. In cells and extracts the contact can be indirect. These calls come from enrichment with a bait or labelling near it, and not all partners need be listed. Sequences can lack the tags named with a protein.

The first assay addresses T1, GFP-ZNRF2 (N-terminal tag, non-myristoylated) (human) (UniProt Q8NHG8).
T1 sequence: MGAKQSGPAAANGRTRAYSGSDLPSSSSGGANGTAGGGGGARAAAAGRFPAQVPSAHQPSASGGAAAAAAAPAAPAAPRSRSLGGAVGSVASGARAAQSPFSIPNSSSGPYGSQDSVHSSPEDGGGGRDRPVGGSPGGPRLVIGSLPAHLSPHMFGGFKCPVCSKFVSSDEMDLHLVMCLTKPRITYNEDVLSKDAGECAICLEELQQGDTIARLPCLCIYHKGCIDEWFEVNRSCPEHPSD
Briefly: affinity purification with mass spectrometry; GFP-Trap immunoprecipitation from 200 mg clarified Triton X-100 lysate of HEK293 Flp-In T-Rex cells stably expressing GFP, GFP-ZNRF2 or ZNRF2-GFP (tetracycline 36 hr), 2 hr at 4°C; SDS-PAGE, gel slices, trypsin, mass spectrometric fingerprinting.
Turning to “E2 conjugating enzyme UBE2N/UBC13 (from UniProt P61088 1-152)”, the binding entry was “binds”.

Another assay concerns the target T2, ZNRF2-GFP (C-terminal tag, myristoylated) (human) (UniProt Q8NHG8).
T2 sequence (chain, N-myristoyl moiety at the N-terminus): T1 sequence
Described as above.
For the substance “E2 conjugating enzyme UBE2N/UBC13 (from UniProt P61088 1-152)”, the binding result was “binds”.

“Mp1 subunit of Ragulator (from UniProt Q9UHA4 1-124)”: the binding entry is recorded as “binds”.

As to “V0A1 component of the V-ATPase (from UniProt Q93050 1-837)”, the binding entry is recorded as “binds”.

For the substance “V0C subunit of the V-ATPase (from UniProt P27449 1-155)”, the binding result is “binds”.

As to “V0D1 subunit of the V-ATPase (from UniProt P61421 1-351)”, the binding result is reported as “binds”.

As for “V1E subunit of the V-ATPase (human (endogenous in HEK293))”, the binding result is on record as “binds”.

Consider “p14 subunit of Ragulator (from UniProt Q9Y2Q5 1-125)”, for which the binding result is recorded as “binds”.
